Results are given in words; binding and its absence hold for the method and conditions named. For part of these data: Binding seen in cells or lysates may run through a third protein. Some binding calls cover weakened binding; strength is not graded here. For part of these data: Tags and fused reporters may be left off the sequences shown. One block for each substance: values may come before it.
Key:
[1] = target: T1, PiT2 loop7 domain (residues 235–482) fused to the Gal4 DNA-binding domain (human) (UniProt Q08357); test: two-hybrid; library screen by yeast mating: bait pGBKT7-loop7 in Y187, prey human fetal brain cDNA library; selection on SD-Leu/Trp/His/Ade, X-Gal
T1 sequence: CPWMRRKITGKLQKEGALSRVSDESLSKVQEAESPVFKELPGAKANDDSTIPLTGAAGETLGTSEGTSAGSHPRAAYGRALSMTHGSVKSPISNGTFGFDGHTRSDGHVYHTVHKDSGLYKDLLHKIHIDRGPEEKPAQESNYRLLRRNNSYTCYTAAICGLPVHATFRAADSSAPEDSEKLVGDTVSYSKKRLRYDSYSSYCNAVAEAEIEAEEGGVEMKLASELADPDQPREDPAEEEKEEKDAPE

Sequences of proteins named here, by UniProt entry; tags and fusion partners are left off. Residues count along the entry.
MAP1B (2167–2468), library clone in pGADT7 (P46821, residues 2167-2468): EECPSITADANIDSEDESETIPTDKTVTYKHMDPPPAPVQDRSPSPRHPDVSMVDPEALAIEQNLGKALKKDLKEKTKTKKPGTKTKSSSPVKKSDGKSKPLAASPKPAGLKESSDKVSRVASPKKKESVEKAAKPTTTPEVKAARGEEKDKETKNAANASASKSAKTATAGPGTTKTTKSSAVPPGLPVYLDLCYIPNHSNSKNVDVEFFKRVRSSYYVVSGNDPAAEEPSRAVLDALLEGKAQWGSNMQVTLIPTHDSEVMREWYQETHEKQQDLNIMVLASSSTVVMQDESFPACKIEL
FLAG-LC1 fusion protein (P46821, residues 2207-2468): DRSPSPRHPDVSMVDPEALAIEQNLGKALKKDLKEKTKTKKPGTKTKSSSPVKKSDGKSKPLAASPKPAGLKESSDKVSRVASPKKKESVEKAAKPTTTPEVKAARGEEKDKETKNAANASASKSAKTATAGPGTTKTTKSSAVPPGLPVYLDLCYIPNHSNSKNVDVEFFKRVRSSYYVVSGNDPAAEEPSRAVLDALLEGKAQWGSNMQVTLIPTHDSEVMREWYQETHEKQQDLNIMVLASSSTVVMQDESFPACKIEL

GFP-tagged LC1 (human) = GFP-tagged LC1 (human) (UniProt P46821); test: co-IP; HeLa cells co-transfected with PiT2 and LC1 vectors; lysates immunoprecipitated with anti-GFP antibody or control IgG
GFP-tagged PiT2 (human) = GFP-tagged PiT2 (human) (UniProt Q08357); test: as above

binding [1]: binds
Substance: MAP1B (2167–2468), library clone in pGADT7 (from UniProt P46821 2167-2468) (domain or fragment)

Substance: Flag-tagged PiT2 (from UniProt Q08357 1-652)
binding (GFP-tagged LC1 (human)): binds

Substance: FLAG-LC1 fusion protein (from UniProt P46821 2207-2468) (domain or fragment)
binding (GFP-tagged PiT2 (human)): binds
